Structures were worked out from names or drawings and are uncertain.
Molecular target: human ferroportin (Homo sapiens, UniProt Q9NP59)
Experiment: Biological in-vitro ferroportin internalization assay (luciferase reporter)
Format: cell-based
Conditions: average pEC50, stably-transfected CHO cell line expressing human ferroportin tagged to a luciferase reporter, 6 h incubation with test compound
Protocol: The protocol for this assay is generally as described in WO2018/128828, incorporated herein by reference in its entirety. Functional internalization of ferroportin protein was measured using a stably-transfected CHO cell line expressing the human ferroportin tagged to a luciferase reporter. Cells were plated for 24 h in the presence of ferric ammonium citrate (FAC). Ferroportin protein expression was induced with doxycycline for 24 h. The next day, the compounds were added. Test compounds were dissolved in DMSO. Cells were incubated with the test compounds for 6 h, and subsequently luciferase activity was measured using the Nano-Glo Luciferase Assay System and Glomax (Promega, Madison, Wis.). The average pEC50 was determined for the test compounds.

Chains of the proteins cited; added tags and fusions are not shown.
UniProt Q9NP59, whole entry: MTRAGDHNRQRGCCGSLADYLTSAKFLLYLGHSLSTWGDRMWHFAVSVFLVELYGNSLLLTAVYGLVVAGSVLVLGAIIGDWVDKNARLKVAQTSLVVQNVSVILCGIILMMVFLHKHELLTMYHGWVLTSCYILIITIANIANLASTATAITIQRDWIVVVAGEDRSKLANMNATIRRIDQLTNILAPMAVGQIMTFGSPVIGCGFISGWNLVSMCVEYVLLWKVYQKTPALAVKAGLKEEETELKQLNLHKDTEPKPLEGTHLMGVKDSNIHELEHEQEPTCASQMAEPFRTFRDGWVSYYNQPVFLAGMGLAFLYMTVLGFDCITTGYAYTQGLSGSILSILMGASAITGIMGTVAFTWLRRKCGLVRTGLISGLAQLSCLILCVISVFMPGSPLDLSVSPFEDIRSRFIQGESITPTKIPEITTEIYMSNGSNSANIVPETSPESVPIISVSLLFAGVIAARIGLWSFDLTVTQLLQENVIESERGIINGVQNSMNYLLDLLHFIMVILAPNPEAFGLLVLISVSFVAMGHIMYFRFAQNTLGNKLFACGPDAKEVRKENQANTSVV

pEC50 (tested form: formate) | pEC50 | Structure (SMILES)
5.4 | – | CN(CC(=O)NC(C)(C)C)c1nc(-c2ncccn2)nc2c1CCC2
– | 7.5 | COc1ccc(NC(=O)CN(C)c2nc(-c3cc4cn[nH]c4cn3)nc3c2CCC3)nc1
